Experimental data as given in the supplement of paper PMC12823440, “Inhibitors supercharge kinase turnover through native proteolytic circuits” (Nature, 2025).
Structures can show the parent of a compound that is named as a salt. The list shows a part of the results. Hit calls seldom repeat between salt and free forms of one compound.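 Kinases were expressed as nanoluciferase fusions in K562 cells and luminescence was read every 4 h between 2 and 18 h as percent of control, DMSO set to 100% and a positive control to 0%. A time point counts as decreased when the signal drops significantly (2 sigma). The hit call is the authors' own, does not follow from the count of time points alone, and its rule is not shown.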

Chains of the proteins cited; added tags and fusions are not shown. Lines headed by an entry give the natural chain unless they say otherwise; changes in a name come on top.
UniProt P28482, whole entry: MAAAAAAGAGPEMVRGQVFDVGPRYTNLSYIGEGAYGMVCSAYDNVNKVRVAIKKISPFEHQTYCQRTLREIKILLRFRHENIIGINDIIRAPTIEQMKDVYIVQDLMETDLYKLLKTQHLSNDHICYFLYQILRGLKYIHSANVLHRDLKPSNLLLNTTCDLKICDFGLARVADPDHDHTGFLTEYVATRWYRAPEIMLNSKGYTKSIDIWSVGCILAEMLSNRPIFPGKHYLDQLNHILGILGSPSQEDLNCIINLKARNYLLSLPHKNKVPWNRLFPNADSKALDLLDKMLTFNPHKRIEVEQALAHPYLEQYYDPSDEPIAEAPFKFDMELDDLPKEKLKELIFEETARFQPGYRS
UniProt P49137, whole entry, looked up: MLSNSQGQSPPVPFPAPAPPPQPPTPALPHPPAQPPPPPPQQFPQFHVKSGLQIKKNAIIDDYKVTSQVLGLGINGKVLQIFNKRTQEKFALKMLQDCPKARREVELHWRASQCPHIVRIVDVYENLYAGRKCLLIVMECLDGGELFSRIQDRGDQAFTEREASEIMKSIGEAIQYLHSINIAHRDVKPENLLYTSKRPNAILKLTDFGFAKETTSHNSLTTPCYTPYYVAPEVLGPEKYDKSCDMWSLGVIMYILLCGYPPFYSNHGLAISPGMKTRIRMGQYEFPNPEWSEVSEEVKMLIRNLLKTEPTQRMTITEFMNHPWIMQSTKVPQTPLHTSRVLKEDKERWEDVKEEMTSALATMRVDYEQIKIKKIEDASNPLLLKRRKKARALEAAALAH
UniProt Q9BUB5: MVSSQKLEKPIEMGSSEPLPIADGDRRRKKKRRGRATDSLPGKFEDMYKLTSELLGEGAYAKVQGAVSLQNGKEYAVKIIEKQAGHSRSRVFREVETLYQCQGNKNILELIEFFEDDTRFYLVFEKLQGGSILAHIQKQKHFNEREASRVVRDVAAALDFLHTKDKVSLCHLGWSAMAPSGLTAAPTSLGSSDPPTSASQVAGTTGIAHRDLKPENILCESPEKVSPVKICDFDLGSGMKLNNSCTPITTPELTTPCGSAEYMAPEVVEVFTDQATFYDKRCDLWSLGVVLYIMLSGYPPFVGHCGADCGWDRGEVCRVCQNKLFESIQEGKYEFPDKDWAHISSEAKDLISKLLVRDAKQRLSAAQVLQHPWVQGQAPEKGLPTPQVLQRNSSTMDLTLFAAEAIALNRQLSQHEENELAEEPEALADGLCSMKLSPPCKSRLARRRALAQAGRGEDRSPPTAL
UniProt Q16620, whole entry, looked up: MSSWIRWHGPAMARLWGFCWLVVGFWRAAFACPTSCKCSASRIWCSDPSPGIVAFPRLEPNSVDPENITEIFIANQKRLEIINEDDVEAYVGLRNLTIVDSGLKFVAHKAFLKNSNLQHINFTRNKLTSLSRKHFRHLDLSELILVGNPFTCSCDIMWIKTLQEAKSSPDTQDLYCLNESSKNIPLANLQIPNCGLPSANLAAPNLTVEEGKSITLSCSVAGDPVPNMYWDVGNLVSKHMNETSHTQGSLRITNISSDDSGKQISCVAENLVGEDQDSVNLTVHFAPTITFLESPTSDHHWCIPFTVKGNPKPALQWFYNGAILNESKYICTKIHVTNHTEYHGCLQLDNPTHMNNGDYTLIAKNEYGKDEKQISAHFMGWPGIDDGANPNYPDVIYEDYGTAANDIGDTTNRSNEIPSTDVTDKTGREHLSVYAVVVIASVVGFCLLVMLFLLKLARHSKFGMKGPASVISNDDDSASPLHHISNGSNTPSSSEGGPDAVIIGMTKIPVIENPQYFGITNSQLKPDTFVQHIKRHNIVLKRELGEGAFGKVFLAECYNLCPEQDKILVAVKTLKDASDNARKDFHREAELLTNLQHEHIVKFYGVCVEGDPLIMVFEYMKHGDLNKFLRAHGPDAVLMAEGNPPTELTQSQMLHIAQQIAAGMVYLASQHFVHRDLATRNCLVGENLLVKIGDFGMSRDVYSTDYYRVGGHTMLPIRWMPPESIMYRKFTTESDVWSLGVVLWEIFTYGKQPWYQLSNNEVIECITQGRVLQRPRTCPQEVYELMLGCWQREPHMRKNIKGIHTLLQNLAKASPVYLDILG
UniProt O96013: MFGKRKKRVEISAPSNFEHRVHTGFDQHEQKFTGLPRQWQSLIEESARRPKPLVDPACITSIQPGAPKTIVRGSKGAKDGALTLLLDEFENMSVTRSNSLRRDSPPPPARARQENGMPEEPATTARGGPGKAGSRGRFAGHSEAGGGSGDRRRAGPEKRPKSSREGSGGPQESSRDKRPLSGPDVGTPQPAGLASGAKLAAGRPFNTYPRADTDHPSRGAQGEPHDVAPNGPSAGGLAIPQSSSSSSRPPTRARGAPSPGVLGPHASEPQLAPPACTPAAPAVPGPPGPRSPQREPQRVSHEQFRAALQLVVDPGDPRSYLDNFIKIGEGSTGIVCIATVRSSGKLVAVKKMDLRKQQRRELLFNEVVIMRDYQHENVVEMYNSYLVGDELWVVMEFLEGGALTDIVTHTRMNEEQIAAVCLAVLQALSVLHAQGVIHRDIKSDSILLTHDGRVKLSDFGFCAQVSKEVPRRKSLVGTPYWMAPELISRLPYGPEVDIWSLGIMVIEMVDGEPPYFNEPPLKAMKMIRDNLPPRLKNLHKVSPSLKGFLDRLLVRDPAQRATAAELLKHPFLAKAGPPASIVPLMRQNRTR
UniProt Q96KB5: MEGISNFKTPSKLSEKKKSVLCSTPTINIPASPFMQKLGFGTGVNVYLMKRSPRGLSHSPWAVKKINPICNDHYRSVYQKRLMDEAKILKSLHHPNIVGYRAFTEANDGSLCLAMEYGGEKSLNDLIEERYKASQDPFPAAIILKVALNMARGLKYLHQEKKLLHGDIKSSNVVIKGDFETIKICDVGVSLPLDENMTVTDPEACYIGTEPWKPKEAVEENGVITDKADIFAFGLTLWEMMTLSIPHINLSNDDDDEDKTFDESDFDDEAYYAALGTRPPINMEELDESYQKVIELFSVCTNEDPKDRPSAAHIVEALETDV
UniProt O15530: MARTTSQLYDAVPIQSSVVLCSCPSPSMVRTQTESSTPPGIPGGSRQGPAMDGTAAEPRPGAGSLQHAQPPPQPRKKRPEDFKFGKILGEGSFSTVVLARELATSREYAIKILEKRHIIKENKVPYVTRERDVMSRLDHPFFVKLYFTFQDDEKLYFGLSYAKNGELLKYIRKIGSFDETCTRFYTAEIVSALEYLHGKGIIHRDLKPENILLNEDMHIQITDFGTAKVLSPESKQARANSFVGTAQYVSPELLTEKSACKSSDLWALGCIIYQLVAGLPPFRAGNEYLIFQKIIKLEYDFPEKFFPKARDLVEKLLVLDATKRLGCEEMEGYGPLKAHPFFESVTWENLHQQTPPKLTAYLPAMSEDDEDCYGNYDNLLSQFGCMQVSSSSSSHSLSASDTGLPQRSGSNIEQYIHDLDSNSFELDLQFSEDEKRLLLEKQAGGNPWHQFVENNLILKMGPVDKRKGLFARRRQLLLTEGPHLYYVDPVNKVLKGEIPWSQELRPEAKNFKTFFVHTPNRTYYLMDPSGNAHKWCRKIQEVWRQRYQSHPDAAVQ
UniProt Q05397, whole entry, looked up: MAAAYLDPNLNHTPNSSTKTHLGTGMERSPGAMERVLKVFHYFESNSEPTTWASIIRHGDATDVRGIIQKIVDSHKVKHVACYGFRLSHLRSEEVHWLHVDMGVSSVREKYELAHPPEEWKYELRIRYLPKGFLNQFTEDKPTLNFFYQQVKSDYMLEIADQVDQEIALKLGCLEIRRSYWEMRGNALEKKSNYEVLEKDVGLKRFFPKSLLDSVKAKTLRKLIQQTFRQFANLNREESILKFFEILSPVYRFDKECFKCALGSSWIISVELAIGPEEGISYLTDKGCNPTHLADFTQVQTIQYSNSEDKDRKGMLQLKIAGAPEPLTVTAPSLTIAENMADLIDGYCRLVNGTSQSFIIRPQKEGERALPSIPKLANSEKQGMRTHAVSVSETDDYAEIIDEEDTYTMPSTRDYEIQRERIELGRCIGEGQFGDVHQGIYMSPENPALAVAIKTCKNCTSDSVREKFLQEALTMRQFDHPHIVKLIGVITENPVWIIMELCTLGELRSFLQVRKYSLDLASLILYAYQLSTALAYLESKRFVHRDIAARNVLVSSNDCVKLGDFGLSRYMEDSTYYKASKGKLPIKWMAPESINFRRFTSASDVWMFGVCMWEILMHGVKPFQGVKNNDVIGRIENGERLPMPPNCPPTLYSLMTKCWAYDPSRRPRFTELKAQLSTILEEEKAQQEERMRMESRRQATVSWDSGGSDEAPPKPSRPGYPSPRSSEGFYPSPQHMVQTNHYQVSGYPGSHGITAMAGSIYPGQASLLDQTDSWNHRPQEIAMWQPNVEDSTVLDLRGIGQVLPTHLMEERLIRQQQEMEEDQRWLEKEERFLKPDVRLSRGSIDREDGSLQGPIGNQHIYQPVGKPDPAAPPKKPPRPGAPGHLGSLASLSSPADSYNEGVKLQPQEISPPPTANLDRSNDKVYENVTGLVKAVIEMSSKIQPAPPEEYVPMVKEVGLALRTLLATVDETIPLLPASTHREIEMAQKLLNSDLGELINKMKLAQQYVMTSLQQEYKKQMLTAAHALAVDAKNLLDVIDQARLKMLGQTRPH
UniProt Q14289, whole entry, looked up: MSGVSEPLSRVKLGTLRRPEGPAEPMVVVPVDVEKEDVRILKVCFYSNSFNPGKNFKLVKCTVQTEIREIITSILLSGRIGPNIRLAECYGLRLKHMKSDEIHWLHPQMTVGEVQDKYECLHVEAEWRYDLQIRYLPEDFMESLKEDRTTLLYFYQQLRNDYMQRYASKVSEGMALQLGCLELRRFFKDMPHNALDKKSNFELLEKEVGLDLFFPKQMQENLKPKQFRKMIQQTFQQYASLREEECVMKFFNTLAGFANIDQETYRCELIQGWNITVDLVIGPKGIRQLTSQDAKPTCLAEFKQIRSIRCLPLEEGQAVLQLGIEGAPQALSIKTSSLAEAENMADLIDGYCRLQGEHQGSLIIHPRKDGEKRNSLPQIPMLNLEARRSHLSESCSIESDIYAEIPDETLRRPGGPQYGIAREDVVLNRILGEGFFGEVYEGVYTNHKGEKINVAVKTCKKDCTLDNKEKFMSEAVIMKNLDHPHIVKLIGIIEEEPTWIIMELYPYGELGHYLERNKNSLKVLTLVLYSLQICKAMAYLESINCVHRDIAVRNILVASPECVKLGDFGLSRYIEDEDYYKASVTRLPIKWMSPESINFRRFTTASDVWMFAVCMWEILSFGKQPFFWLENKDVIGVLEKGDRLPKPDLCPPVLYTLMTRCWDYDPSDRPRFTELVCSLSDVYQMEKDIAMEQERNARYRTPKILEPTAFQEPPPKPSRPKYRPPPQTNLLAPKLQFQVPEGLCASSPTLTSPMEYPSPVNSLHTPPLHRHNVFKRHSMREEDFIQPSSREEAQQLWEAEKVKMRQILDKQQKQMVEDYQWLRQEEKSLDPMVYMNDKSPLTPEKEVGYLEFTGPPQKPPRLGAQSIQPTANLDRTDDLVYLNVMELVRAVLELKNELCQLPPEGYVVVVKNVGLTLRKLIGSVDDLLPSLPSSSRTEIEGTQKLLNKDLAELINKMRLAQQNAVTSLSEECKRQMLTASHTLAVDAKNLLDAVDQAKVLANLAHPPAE

How the values were obtained:
Assay in all cases: kinase-Nluc reporter destabilization hit call (1 = scored as downregulated) (binary); higher = compound decreases kinase abundance
Settings in all cases: K562, 2-18 h
MAPK1 = MAPK1 (UniProt P28482)
MAPK4 = MAPK4 (UniProt P31152)
MAPKAPK2 = MAPKAPK2 (UniProt P49137)
MKNK1 = MKNK1 (UniProt Q9BUB5)
NTRK2 = NTRK2 (UniProt Q16620)
NTRK3 = NTRK3 (UniProt Q16288)
PAK4 = PAK4 (UniProt O96013)
PBK = PBK (UniProt Q96KB5)
PDGFRB = PDGFRB (UniProt P09619)
PDK1 = PDK1 (UniProt Q15118)
PDPK1 = PDPK1 (UniProt O15530)
PIK4CA = PIK4CA (UniProt P42356)
PIK4CB = PIK4CB (UniProt Q9UBF8)
PLK1 = PLK1 (UniProt P53350)
PRKAA1 = PRKAA1 (UniProt Q13131)
PRKCA = PRKCA (UniProt P17252)
PTK2 = PTK2 (UniProt Q05397)
PTK2B = PTK2B (UniProt Q14289)
RAF1 = RAF1 (UniProt P04049)
[1] = biological target: RAF1_S257L (clone: RAF1_mut) (UniProt P04049)

Measured: kinase-Nluc reporter destabilization hit call

COc1cc(/C=C/C(=O)O)ccc1O [Ferulic acid]
inactive: MAPK1; 10 µM 0 | MAPK4; 10 µM 0 | MAPKAPK2; 10 µM 0 | MKNK1; 10 µM 0 | NTRK2; 10 µM 0 | NTRK3; 10 µM 0 | PAK4; 10 µM 0 | PBK; 10 µM 0 | PDGFRB; 10 µM 0 | PDK1; 10 µM 0 | PDPK1; 10 µM 0 | PIK4CA; 10 µM 0 | PIK4CB; 10 µM 0 | PLK1; 10 µM 0 | PRKAA1; 10 µM 0 | PRKCA; 10 µM 0 | PTK2; 10 µM 0 | PTK2B; 10 µM 0 | RAF1; 10 µM 0 | [1]; 10 µM 0

CCS(=O)(=O)N1CC(CC#N)(n2cc(-c3ncnc4[nH]ccc34)cn2)C1 [Baricitinib (phosphate)]
inactive: MAPK1; 10 µM 0 | MAPK4; 10 µM 0 | MAPKAPK2; 10 µM 0 | MKNK1; 10 µM 0 | NTRK2; 10 µM 0 | NTRK3; 10 µM 0 | PAK4; 10 µM 0 | PBK; 10 µM 0 | PDGFRB; 10 µM 0 | PDK1; 10 µM 0 | PDPK1; 10 µM 0 | PIK4CA; 10 µM 0 | PIK4CB; 10 µM 0 | PLK1; 10 µM 0 | PRKAA1; 10 µM 0 | PRKCA; 10 µM 0 | PTK2; 10 µM 0 | PTK2B; 10 µM 0 | RAF1; 10 µM 0 | [1]; 10 µM 0

CN(C)C(=N)NC(=N)N [Metformin]
inactive: MAPK1; 10 µM 0 | MAPK4; 10 µM 0 | MAPKAPK2; 10 µM 0 | MKNK1; 10 µM 0 | NTRK2; 10 µM 0 | NTRK3; 10 µM 0 | PAK4; 10 µM 0 | PBK; 10 µM 0 | PDGFRB; 10 µM 0 | PDK1; 10 µM 0 | PDPK1; 10 µM 0 | PIK4CA; 10 µM 0 | PIK4CB; 10 µM 0 | PLK1; 10 µM 0 | PRKAA1; 10 µM 0 | PRKCA; 10 µM 0 | PTK2; 10 µM 0 | PTK2B; 10 µM 0 | RAF1; 10 µM 0 | [1]; 10 µM 0

C[C@H](Nc1cc(-c2cnn(C)c2)cc(Nc2cnccn2)n1)c1ccc(F)cc1 [Ilginatinib]
inactive: MAPK1; 2.5 µM 0 | MAPK4; 2.5 µM 0 | MAPKAPK2; 2.5 µM 0 | MKNK1; 2.5 µM 0 | NTRK2; 2.5 µM 0 | NTRK3; 2.5 µM 0 | PAK4; 2.5 µM 0 | PBK; 2.5 µM 0 | PDGFRB; 2.5 µM 0 | PDK1; 2.5 µM 0 | PDPK1; 2.5 µM 0 | PIK4CA; 2.5 µM 0 | PIK4CB; 2.5 µM 0 | PLK1; 2.5 µM 0 | PRKAA1; 2.5 µM 0 | PRKCA; 2.5 µM 0 | PTK2; 2.5 µM 0 | PTK2B; 2.5 µM 0 | RAF1; 2.5 µM 0 | [1]; 2.5 µM 0

Clc1ccc(C2(c3ccc(-c4cn[nH]c4)cc3)CCNCC2)cc1 [AT7867 (dihydrochloride)]
inactive: MAPK1; 2.5 µM 0 | MAPK4; 2.5 µM 0 | MAPKAPK2; 2.5 µM 0 | MKNK1; 2.5 µM 0 | NTRK2; 2.5 µM 0 | NTRK3; 2.5 µM 0 | PAK4; 2.5 µM 0 | PBK; 2.5 µM 0 | PDGFRB; 2.5 µM 0 | PDK1; 2.5 µM 0 | PDPK1; 2.5 µM 0 | PIK4CA; 2.5 µM 0 | PIK4CB; 2.5 µM 0 | PLK1; 2.5 µM 0 | PRKAA1; 2.5 µM 0 | PRKCA; 2.5 µM 0 | PTK2; 2.5 µM 0 | PTK2B; 2.5 µM 0 | RAF1; 2.5 µM 0 | [1]; 2.5 µM 0

CN1CCCN(C(=O)c2cccc(-c3ccc(/C=C4/C(=O)Nc5ccc(Cl)cc54)o3)c2)CC1 [CX-6258 (hydrochloride hydrate)]
inactive: MAPK1; 2.5 µM 0 | MAPK4; 2.5 µM 0 | MAPKAPK2; 2.5 µM 0 | MKNK1; 2.5 µM 0 | NTRK2; 2.5 µM 0 | NTRK3; 2.5 µM 0 | PAK4; 2.5 µM 0 | PBK; 2.5 µM 0 | PDGFRB; 2.5 µM 0 | PDK1; 2.5 µM 0 | PDPK1; 2.5 µM 0 | PIK4CA; 2.5 µM 0 | PIK4CB; 2.5 µM 0 | PLK1; 2.5 µM 0 | PRKAA1; 2.5 µM 0 | PRKCA; 2.5 µM 0 | PTK2; 2.5 µM 0 | PTK2B; 2.5 µM 0 | RAF1; 2.5 µM 0 | [1]; 2.5 µM 0

C[C@@H](N)[C@H]1CC[C@H](C(=O)Nc2ccncc2)CC1
inactive: MAPK1; 10 µM 0 | MAPK4; 10 µM 0 | MAPKAPK2; 10 µM 0 | MKNK1; 10 µM 0 | NTRK2; 10 µM 0 | NTRK3; 10 µM 0 | PAK4; 10 µM 0 | PBK; 10 µM 0 | PDGFRB; 10 µM 0 | PDK1; 10 µM 0 | PDPK1; 10 µM 0 | PIK4CA; 10 µM 0 | PIK4CB; 10 µM 0 | PLK1; 10 µM 0 | PRKAA1; 10 µM 0 | PRKCA; 10 µM 0 | PTK2; 10 µM 0 | RAF1; 10 µM 0 | [1]; 10 µM 0

CCCC(=O)Nc1ncnc2c1ncn2[C@@H]1O[C@@H]2COP(=O)(O)O[C@H]2[C@H]1OC(=O)CCC [Bucladesine (sodium)]
inactive: MAPK1; 10 µM 0 | MAPK4; 10 µM 0 | MAPKAPK2; 10 µM 0 | MKNK1; 10 µM 0 | NTRK2; 10 µM 0 | NTRK3; 10 µM 0 | PAK4; 10 µM 0 | PBK; 10 µM 0 | PDGFRB; 10 µM 0 | PDK1; 10 µM 0 | PDPK1; 10 µM 0 | PIK4CA; 10 µM 0 | PIK4CB; 10 µM 0 | PLK1; 10 µM 0 | PRKAA1; 10 µM 0 | PRKCA; 10 µM 0 | PTK2; 10 µM 0 | PTK2B; 10 µM 0 | RAF1; 10 µM 0 | [1]; 10 µM 0
